Laboratory results from the supplement of paper PMC10032668.
Some of the results follow. Only hits are listed; about a third recur on repeated control peptides.

Chains of the proteins cited; added tags and fusions are not shown.
DCTN3, O75935, UniProt O75935, whole entry: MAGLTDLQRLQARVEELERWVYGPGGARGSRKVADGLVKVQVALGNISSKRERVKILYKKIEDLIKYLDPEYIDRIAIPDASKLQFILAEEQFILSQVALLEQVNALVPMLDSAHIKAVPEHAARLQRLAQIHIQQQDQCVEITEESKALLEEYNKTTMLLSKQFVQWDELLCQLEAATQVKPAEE
NCK2, O43639, UniProt O43639, whole entry: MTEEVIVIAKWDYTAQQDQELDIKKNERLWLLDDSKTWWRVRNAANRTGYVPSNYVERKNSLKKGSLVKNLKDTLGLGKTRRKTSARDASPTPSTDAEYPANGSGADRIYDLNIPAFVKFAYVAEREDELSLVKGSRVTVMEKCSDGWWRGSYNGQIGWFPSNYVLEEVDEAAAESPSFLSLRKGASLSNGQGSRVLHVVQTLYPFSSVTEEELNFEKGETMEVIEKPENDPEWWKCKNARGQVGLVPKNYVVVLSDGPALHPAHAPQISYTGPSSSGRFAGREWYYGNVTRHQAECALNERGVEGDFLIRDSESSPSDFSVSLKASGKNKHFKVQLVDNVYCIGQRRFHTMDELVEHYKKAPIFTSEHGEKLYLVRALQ
SRSF9, Q13242, UniProt Q13242, whole entry: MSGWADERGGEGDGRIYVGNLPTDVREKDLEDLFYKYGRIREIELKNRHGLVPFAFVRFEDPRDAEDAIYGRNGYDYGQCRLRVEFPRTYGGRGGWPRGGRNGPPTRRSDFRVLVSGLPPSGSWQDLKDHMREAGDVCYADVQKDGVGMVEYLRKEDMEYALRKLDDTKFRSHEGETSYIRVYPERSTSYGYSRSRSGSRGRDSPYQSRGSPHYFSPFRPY
CKS2, P33552, UniProt P33552, whole entry: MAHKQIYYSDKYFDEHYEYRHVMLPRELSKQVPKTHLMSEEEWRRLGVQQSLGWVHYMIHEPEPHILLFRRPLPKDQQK
ITGB1, P05556, UniProt P05556, whole entry: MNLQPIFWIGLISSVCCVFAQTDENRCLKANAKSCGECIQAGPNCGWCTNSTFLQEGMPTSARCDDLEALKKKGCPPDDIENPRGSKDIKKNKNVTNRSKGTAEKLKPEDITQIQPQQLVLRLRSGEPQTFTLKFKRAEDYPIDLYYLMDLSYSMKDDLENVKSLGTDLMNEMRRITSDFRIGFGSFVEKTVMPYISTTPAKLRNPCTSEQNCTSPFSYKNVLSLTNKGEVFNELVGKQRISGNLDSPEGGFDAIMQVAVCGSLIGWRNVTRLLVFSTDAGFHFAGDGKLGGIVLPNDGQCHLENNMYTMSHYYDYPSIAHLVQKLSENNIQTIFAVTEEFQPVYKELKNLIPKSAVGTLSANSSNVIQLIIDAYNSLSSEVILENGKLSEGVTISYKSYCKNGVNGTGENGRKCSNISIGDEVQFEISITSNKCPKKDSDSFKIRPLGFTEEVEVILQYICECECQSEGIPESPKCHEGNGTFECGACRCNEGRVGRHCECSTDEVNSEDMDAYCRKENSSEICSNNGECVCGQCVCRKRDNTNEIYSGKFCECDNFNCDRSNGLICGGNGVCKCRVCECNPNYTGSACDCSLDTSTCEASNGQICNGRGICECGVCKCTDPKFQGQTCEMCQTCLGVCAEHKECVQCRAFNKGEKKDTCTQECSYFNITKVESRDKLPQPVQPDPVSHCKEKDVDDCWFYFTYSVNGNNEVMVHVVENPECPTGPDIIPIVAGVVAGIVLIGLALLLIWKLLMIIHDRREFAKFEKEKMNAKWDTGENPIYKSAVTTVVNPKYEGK
CXXC1, Q9P0U4, UniProt Q9P0U4, whole entry: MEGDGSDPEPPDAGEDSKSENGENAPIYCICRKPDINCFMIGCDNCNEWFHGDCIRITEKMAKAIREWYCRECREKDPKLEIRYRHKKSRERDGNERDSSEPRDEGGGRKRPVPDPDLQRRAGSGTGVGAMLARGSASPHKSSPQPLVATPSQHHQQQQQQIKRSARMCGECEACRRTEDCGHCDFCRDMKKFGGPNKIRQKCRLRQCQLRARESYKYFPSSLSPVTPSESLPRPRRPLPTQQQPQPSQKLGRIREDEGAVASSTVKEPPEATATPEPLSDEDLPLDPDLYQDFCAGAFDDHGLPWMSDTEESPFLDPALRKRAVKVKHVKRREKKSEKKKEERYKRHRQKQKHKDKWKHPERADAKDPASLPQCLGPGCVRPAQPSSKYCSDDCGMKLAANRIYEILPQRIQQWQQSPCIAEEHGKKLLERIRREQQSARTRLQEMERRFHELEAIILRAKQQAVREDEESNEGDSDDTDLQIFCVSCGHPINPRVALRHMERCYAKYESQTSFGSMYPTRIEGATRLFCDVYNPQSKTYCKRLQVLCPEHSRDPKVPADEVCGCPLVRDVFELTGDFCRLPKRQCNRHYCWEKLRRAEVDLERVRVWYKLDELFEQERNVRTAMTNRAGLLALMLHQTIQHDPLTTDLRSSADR
IK, Q13123, UniProt Q13123, whole entry: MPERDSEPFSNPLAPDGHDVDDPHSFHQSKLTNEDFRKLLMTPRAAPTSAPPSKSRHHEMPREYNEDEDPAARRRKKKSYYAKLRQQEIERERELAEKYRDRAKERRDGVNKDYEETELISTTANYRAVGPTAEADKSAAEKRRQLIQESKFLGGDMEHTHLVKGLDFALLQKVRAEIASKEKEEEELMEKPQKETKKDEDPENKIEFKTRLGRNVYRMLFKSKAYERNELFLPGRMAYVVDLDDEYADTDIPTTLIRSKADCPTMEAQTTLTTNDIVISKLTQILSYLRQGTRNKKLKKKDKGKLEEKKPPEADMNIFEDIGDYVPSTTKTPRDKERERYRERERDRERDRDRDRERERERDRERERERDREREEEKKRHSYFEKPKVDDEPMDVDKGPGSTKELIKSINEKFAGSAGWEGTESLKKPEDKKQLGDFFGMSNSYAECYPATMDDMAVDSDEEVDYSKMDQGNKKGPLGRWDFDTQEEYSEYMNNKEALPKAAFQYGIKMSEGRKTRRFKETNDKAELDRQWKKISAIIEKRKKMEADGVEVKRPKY
CCNB1, P14635, UniProt P14635, whole entry: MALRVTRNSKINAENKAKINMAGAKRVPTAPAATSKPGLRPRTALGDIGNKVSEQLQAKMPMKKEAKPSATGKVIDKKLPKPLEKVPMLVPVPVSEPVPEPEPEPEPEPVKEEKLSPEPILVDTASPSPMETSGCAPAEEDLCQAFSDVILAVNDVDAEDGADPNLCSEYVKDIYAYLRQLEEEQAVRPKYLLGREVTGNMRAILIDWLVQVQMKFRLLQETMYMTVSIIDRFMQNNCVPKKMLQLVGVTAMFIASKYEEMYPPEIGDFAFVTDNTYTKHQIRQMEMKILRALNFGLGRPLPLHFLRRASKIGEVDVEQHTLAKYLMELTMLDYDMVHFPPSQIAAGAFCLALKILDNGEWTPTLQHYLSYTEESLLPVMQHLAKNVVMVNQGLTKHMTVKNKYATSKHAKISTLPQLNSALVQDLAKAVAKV
RBM25, P49756, UniProt P49756, whole entry: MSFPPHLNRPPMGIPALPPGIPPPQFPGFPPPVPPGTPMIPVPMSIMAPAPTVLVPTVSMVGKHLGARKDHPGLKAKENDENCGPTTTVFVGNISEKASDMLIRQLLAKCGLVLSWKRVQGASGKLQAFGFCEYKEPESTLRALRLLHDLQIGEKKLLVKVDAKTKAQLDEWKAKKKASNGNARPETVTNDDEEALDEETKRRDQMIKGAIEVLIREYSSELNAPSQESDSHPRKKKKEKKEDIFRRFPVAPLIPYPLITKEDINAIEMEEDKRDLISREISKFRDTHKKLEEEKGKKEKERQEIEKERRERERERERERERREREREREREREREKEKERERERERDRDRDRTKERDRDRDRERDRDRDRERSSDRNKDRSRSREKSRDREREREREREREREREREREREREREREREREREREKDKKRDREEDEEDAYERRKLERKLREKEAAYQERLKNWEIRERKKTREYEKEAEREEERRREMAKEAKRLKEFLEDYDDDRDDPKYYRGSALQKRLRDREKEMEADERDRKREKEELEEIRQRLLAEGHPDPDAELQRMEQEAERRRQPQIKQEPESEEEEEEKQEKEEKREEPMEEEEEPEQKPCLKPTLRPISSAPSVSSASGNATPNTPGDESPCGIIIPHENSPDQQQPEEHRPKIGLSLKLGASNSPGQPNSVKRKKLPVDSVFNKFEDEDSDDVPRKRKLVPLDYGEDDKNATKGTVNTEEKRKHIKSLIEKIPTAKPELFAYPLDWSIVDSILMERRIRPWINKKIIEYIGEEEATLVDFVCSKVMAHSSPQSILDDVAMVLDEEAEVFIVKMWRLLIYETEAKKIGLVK

Experiments:
Test in all cases: PRISMA enrichment of interactor (LFQ) in peptide spot vs all other peptide spots (log2 fold change); higher = stronger / more specific binding of the interactor to the peptide
CLINT1, Q14677 = target: CLINT1, Q14677
Procedure: (§1)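 PRISMA: 221 full-length sORF-encoded peptides (3-15 aa), plus SOS1/GLUT1 control peptides, were spot-synthesized on cellulose membranes in triplicate. Membranes were incubated with HEK293T lysate, and bound proteins were identified by LC-MS/MS with LFQ. Enrichment is the log2 fold change versus all other peptide spots; only significant interactors are listed (cutoff c=6, x0=2.8).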

CLTA, P09496 = target: CLTA, P09496
Procedure: as §1

CLTB, P09497 = target: CLTB, P09497
Procedure: as §1

CLTC, Q00610 = target: CLTC, Q00610
Procedure: as §1

CLTCL1, P53675 = target: CLTCL1, P53675
Procedure: as §1

DAZAP1, Q96EP5 = target: DAZAP1, Q96EP5
Procedure: as §1

ORC4, O43929 = target: ORC4, O43929
Procedure: as §1

PICALM, Q13492 = target: PICALM, Q13492
Procedure: as §1

TIA1, P31483 = target: TIA1, P31483
Procedure: as §1

DCTN3, O75935 = target: DCTN3, O75935
Procedure: as §1

GEMIN5, Q8TEQ6 = target: GEMIN5, Q8TEQ6
Procedure: as §1

PRPSAP1, Q14558 = target: PRPSAP1, Q14558
Procedure: as §1

RAP1GDS1, P52306 = target: RAP1GDS1, P52306
Procedure: as §1

RNF113A, O15541 = target: RNF113A, O15541
Procedure: as §1

DDX28, Q9NUL7 = target: DDX28, Q9NUL7
Procedure: as §1

FADS1, O60427 = target: FADS1, O60427
Procedure: as §1

NCK2, O43639 = target: NCK2, O43639
Procedure: as §1

NEPRO, Q6NW34 = target: NEPRO, Q6NW34
Procedure: as §1

SULT1C2, O00338 = target: SULT1C2, O00338
Procedure: as §1

TMED1, Q13445 = target: TMED1, Q13445
Procedure: as §1

ZC3HAV1, Q7Z2W4 = target: ZC3HAV1, Q7Z2W4
Procedure: as §1

EIF6, P56537 = target: EIF6, P56537
Procedure: as §1

LAMP1, P11279 = target: LAMP1, P11279
Procedure: as §1

NAA40, Q86UY6 = target: NAA40, Q86UY6
Procedure: as §1

RCN2, Q14257 = target: RCN2, Q14257
Procedure: as §1

RPS29, P62273 = target: RPS29, P62273
Procedure: as §1

SRSF9, Q13242 = target: SRSF9, Q13242
Procedure: as §1

CKS2, P33552 = target: CKS2, P33552
Procedure: as §1

U2SURP, O15042 = target: U2SURP, O15042
Procedure: as §1

CENPB, P07199 = target: CENPB, P07199
Procedure: as §1

MRPL10, Q7Z7H8 = target: MRPL10, Q7Z7H8
Procedure: as §1

MRPS21, P82921 = target: MRPS21, P82921
Procedure: as §1

F13A1, P00488 = target: F13A1, P00488
Procedure: as §1

FDX1, P10109 = target: FDX1, P10109
Procedure: as §1

GC, P02774 = target: GC, P02774
Procedure: as §1

ITGB1, P05556 = target: ITGB1, P05556
Procedure: as §1

SEPTIN8, Q92599 = target: SEPTIN8, Q92599
Procedure: as §1

TRAF2, Q12933 = target: TRAF2, Q12933
Procedure: as §1

TSFM, P43897 = target: TSFM, P43897
Procedure: as §1

CXXC1, Q9P0U4 = target: CXXC1, Q9P0U4
Procedure: as §1

GPD2, P43304 = target: GPD2, P43304
Procedure: as §1

IK, Q13123 = target: IK, Q13123
Procedure: as §1

NKAPD1, Q6ZUT1 = target: NKAPD1, Q6ZUT1
Procedure: as §1

UPF3B, Q9BZI7 = target: UPF3B, Q9BZI7
Procedure: as §1

CLIC4, Q9Y696 = target: CLIC4, Q9Y696
Procedure: as §1

CCNB1, P14635 = target: CCNB1, P14635
Procedure: as §1

ELOVL5, Q9NYP7 = target: ELOVL5, Q9NYP7
Procedure: as §1

GPHN, Q9NQX3 = target: GPHN, Q9NQX3
Procedure: as §1

MRPL16, Q9NX20 = target: MRPL16, Q9NX20
Procedure: as §1

DSTN, P60981 = target: DSTN, P60981
Procedure: as §1

NQO2, P16083 = target: NQO2, P16083
Procedure: as §1

NUP188, Q5SRE5 = target: NUP188, Q5SRE5
Procedure: as §1

RBIS, Q8N0T1 = target: RBIS, Q8N0T1
Procedure: as §1

RBM22, Q9NW64 = target: RBM22, Q9NW64
Procedure: as §1

CNN2, Q99439 = target: CNN2, Q99439
Procedure: as §1

PARP2, Q9UGN5 = target: PARP2, Q9UGN5
Procedure: as §1

ETHE1, O95571 = target: ETHE1, O95571
Procedure: as §1

GET4, Q7L5D6 = target: GET4, Q7L5D6
Procedure: as §1

MPP2, Q14168 = target: MPP2, Q14168
Procedure: as §1

DSC1, Q08554 = target: DSC1, Q08554
Procedure: as §1

IDH2, P48735 = target: IDH2, P48735
Procedure: as §1

MRPL2, Q5T653 = target: MRPL2, Q5T653
Procedure: as §1

RBM25, P49756 = target: RBM25, P49756
Procedure: as §1

Binder: MLLWL [MTMR3]
- PRISMA enrichment of interactor (log2) (CLINT1, Q14677): 5.59
- PRISMA enrichment of interactor (log2) (CLTA, P09496): 7.69
- PRISMA enrichment of interactor (log2) (CLTB, P09497): 7.52
- PRISMA enrichment of interactor (log2) (CLTC, Q00610): 6.83
- PRISMA enrichment of interactor (log2) (CLTCL1, P53675): 5.21
- PRISMA enrichment of interactor (log2) (DAZAP1, Q96EP5): 5.44
- PRISMA enrichment of interactor (log2) (ORC4, O43929): 4.66
- PRISMA enrichment of interactor (log2) (PICALM, Q13492): 5.42
- PRISMA enrichment of interactor (log2) (TIA1, P31483): 5.54

Binder: MQRRGLSEIQT [CHCHD7]
- PRISMA enrichment of interactor (log2) (DCTN3, O75935): 6.38
- PRISMA enrichment of interactor (log2) (GEMIN5, Q8TEQ6): 4.87
- PRISMA enrichment of interactor (log2) (PRPSAP1, Q14558): 5.15
- PRISMA enrichment of interactor (log2) (RAP1GDS1, P52306): 9.83
- PRISMA enrichment of interactor (log2) (RNF113A, O15541): 5.69

Binder: MCRDCPGEELRPR [LRRC32]
- PRISMA enrichment of interactor (log2) (DDX28, Q9NUL7): 6.62
- PRISMA enrichment of interactor (log2) (FADS1, O60427): 5.22
- PRISMA enrichment of interactor (log2) (NCK2, O43639): 6.59
- PRISMA enrichment of interactor (log2) (NEPRO, Q6NW34): 5.02
- PRISMA enrichment of interactor (log2) (PICALM, Q13492): 6.79
- PRISMA enrichment of interactor (log2) (SULT1C2, O00338): 7.48
- PRISMA enrichment of interactor (log2) (TMED1, Q13445): 5.77
- PRISMA enrichment of interactor (log2) (ZC3HAV1, Q7Z2W4): 7.09

Binder: MGPGSAR [STAT6]
- PRISMA enrichment of interactor (log2) (EIF6, P56537): 4.95
- PRISMA enrichment of interactor (log2) (LAMP1, P11279): 5.48
- PRISMA enrichment of interactor (log2) (NAA40, Q86UY6): 4.1
- PRISMA enrichment of interactor (log2) (RCN2, Q14257): 6.39
- PRISMA enrichment of interactor (log2) (RPS29, P62273): 5.19
- PRISMA enrichment of interactor (log2) (SRSF9, Q13242): 6.23

Binder: MAAMMAFLRTPLD [RPL17]
- PRISMA enrichment of interactor (log2) (CKS2, P33552): 4.92
- PRISMA enrichment of interactor (log2) (U2SURP, O15042): 4.95

Binder: MFQNRVRPLVKKN [CNOT1]
- PRISMA enrichment of interactor (log2) (CENPB, P07199): 5.05
- PRISMA enrichment of interactor (log2) (MRPL10, Q7Z7H8): 7.37
- PRISMA enrichment of interactor (log2) (MRPS21, P82921): 5.56

Binder: MVEKEVGRICAEEA [ZNF146]
- PRISMA enrichment of interactor (log2) (F13A1, P00488): 5.51
- PRISMA enrichment of interactor (log2) (FDX1, P10109): 4.77
- PRISMA enrichment of interactor (log2) (GC, P02774): 7.66
- PRISMA enrichment of interactor (log2) (ITGB1, P05556): 4.68
- PRISMA enrichment of interactor (log2) (SEPTIN8, Q92599): 4.28
- PRISMA enrichment of interactor (log2) (TRAF2, Q12933): 5.32
- PRISMA enrichment of interactor (log2) (TSFM, P43897): 7.82

Binder: MCLTGRA [EDEM3]
- PRISMA enrichment of interactor (log2) (CXXC1, Q9P0U4): 5.46
- PRISMA enrichment of interactor (log2) (GPD2, P43304): 6.48
- PRISMA enrichment of interactor (log2) (IK, Q13123): 6.21
- PRISMA enrichment of interactor (log2) (NKAPD1, Q6ZUT1): 5.3
- PRISMA enrichment of interactor (log2) (TRAF2, Q12933): 8.02
- PRISMA enrichment of interactor (log2) (UPF3B, Q9BZI7): 4.74

Binder: MLLLQGV [FRMD6]
- PRISMA enrichment of interactor (log2) (CLIC4, Q9Y696): 6.47

Binder: MFSVIGDKYTYRGSQ [MEOX1]
- PRISMA enrichment of interactor (log2) (CCNB1, P14635): 3.88
- PRISMA enrichment of interactor (log2) (ELOVL5, Q9NYP7): 5.69
- PRISMA enrichment of interactor (log2) (GPHN, Q9NQX3): 10.9
- PRISMA enrichment of interactor (log2) (MRPL16, Q9NX20): 5.36

Binder: MAAGRPLPDSSS [FAM204A]
- PRISMA enrichment of interactor (log2) (DSTN, P60981): 8.03
- PRISMA enrichment of interactor (log2) (NQO2, P16083): 4.42
- PRISMA enrichment of interactor (log2) (NUP188, Q5SRE5): 7.02
- PRISMA enrichment of interactor (log2) (RBIS, Q8N0T1): 7.31
- PRISMA enrichment of interactor (log2) (RBM22, Q9NW64): 4.77

Binder: MDPEPR [RFC1]
- PRISMA enrichment of interactor (log2) (CNN2, Q99439): 5.1
- PRISMA enrichment of interactor (log2) (PARP2, Q9UGN5): 4.48

Binder: MMSTDEETEAWRG [ZNF544]
- PRISMA enrichment of interactor (log2) (ETHE1, O95571): 3.87
- PRISMA enrichment of interactor (log2) (GET4, Q7L5D6): 5.59
- PRISMA enrichment of interactor (log2) (MPP2, Q14168): 4.48

Binder: MTQESFA [MID1]
- PRISMA enrichment of interactor (log2) (CNN2, Q99439): 5.2

Binder: MHLVRTEHKLPG [MAP4]
- PRISMA enrichment of interactor (log2) (DSC1, Q08554): 7.06
- PRISMA enrichment of interactor (log2) (IDH2, P48735): 3.86
- PRISMA enrichment of interactor (log2) (MRPL2, Q5T653): 7.27
- PRISMA enrichment of interactor (log2) (RBM25, P49756): 13
